{"source": "PubChem BioAssay AID1259308, NCATS | 2017", "assay": "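Candidate targets for better recombinant protein yield in mammalian cells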 (primary screen)", "cells": "human HEK293 embryonic kidney cells stably expressing firefly luciferase (HEK-CMV-Luc2-Hygro)", "reagent": "single siRNA against human genes, 0.8 pmol siRNA per well", "duration": "72 h", "detection": "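Reporter luminescence and viable-cell signal on separate replicate plates, given as percent of non-targeting control and median/MAD z-scores, plus per-cell luciferase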", "direction": "total luciferase, z-score and total luciferase, % of control: higher = more reporter protein produced", "hit rule": "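Active when the median/MAD z-score for overall luciferase is greater than 3; a gene was taken forward for validation with new siRNAs if at least two of its three siRNAs passed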", "calls": "active = raised luciferase; inactive = no rise", "note": "In all, the deposit lists about 59,000 reagents; shown is an unselected part. Over the whole deposit, about 1,510 (2.6%) were called active. 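Calls use total luciferase alone and ignore viability, so some active siRNAs may act by altering cell number.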 Unmarked entries are inactive. The numbers tell different reagents against one gene apart. Not all columns of the deposit are shown."}
{"gene": "PRSS27 (serine protease 27)", "reagent": 1, "total luciferase, z-score": -1.77, "total luciferase, % of control": 46.7}
{"gene": "PRSS27 (serine protease 27)", "reagent": 2, "total luciferase, z-score": 0.195, "total luciferase, % of control": 85.8}
{"gene": "PRSS27 (serine protease 27)", "reagent": 3, "total luciferase, z-score": 2.73, "total luciferase, % of control": 136}
{"gene": "ZMAT3 (zinc finger matrin-type 3)", "reagent": 1, "total luciferase, z-score": 1.35, "total luciferase, % of control": 109}
{"gene": "ZMAT3 (zinc finger matrin-type 3)", "reagent": 2, "total luciferase, z-score": -1.38, "total luciferase, % of control": 54.4}
{"gene": "ZMAT3 (zinc finger matrin-type 3)", "reagent": 3, "total luciferase, z-score": -0.782, "total luciferase, % of control": 66.3}
{"gene": "EVI2B (ecotropic viral integration site 2B)", "reagent": 1, "total luciferase, z-score": -1.7, "total luciferase, % of control": 48}
{"gene": "EVI2B (ecotropic viral integration site 2B)", "reagent": 2, "total luciferase, z-score": -0.953, "total luciferase, % of control": 62.9}
{"gene": "EVI2B (ecotropic viral integration site 2B)", "reagent": 3, "total luciferase, z-score": -1.03, "total luciferase, % of control": 61.5}
{"gene": "RAD51B (RAD51 paralog B)", "reagent": 1, "total luciferase, z-score": -1.08, "total luciferase, % of control": 60.4}
{"gene": "RAD51B (RAD51 paralog B)", "reagent": 2, "total luciferase, z-score": -0.544, "total luciferase, % of control": 71.1}
{"gene": "RAD51B (RAD51 paralog B)", "reagent": 3, "total luciferase, z-score": -0.946, "total luciferase, % of control": 63.1}
{"gene": "RIOX1 (ribosomal oxygenase 1)", "reagent": 1, "total luciferase, z-score": -0.339, "total luciferase, % of control": 75.1}
{"gene": "RIOX1 (ribosomal oxygenase 1)", "reagent": 2, "total luciferase, z-score": -0.0736, "total luciferase, % of control": 80.4}
{"gene": "RIOX1 (ribosomal oxygenase 1)", "reagent": 3, "total luciferase, z-score": -1.35, "total luciferase, % of control": 55}
{"gene": "PKD1L1-AS1 (PKD1L1 antisense RNA 1)", "reagent": 1, "total luciferase, z-score": 0.53, "total luciferase, % of control": 92.4}
{"gene": "PKD1L1-AS1 (PKD1L1 antisense RNA 1)", "reagent": 2, "total luciferase, z-score": 1.15, "total luciferase, % of control": 105}
{"gene": "PKD1L1-AS1 (PKD1L1 antisense RNA 1)", "reagent": 3, "total luciferase, z-score": 0.331, "total luciferase, % of control": 88.5}
{"gene": "TCP10L3 (t-complex 10 like 3 (pseudogene))", "reagent": 1, "total luciferase, z-score": -0.421, "total luciferase, % of control": 73.5}
{"gene": "TCP10L3 (t-complex 10 like 3 (pseudogene))", "reagent": 2, "total luciferase, z-score": -1.44, "total luciferase, % of control": 53.2}
{"gene": "TCP10L3 (t-complex 10 like 3 (pseudogene))", "reagent": 3, "total luciferase, z-score": -0.68, "total luciferase, % of control": 68.4}
{"gene": "FARP2 (FERM, ARH/RhoGEF and pleckstrin domain protein 2)", "reagent": 1, "total luciferase, z-score": -0.665, "total luciferase, % of control": 68.7}
{"gene": "FARP2 (FERM, ARH/RhoGEF and pleckstrin domain protein 2)", "reagent": 2, "total luciferase, z-score": -0.343, "total luciferase, % of control": 75.1}
{"gene": "FARP2 (FERM, ARH/RhoGEF and pleckstrin domain protein 2)", "reagent": 3, "total luciferase, z-score": -0.2, "total luciferase, % of control": 77.9}
{"gene": "HCG9 (HLA complex group 9)", "reagent": 1, "total luciferase, z-score": 0.21, "total luciferase, % of control": 86.1}
{"gene": "HCG9 (HLA complex group 9)", "reagent": 2, "total luciferase, z-score": -0.305, "total luciferase, % of control": 75.8}
{"gene": "HCG9 (HLA complex group 9)", "reagent": 3, "total luciferase, z-score": -0.716, "total luciferase, % of control": 67.6}
{"gene": "GRIA1 (glutamate ionotropic receptor AMPA type subunit 1)", "reagent": 1, "total luciferase, z-score": 0.107, "total luciferase, % of control": 84}
{"gene": "GRIA1 (glutamate ionotropic receptor AMPA type subunit 1)", "reagent": 2, "total luciferase, z-score": 0.584, "total luciferase, % of control": 93.5}
{"gene": "GRIA1 (glutamate ionotropic receptor AMPA type subunit 1)", "reagent": 3, "total luciferase, z-score": 0.438, "total luciferase, % of control": 90.6}
{"gene": "TAFA1 (TAFA chemokine like family member 1)", "reagent": 1, "total luciferase, z-score": 0.442, "total luciferase, % of control": 90.7}
{"gene": "TAFA1 (TAFA chemokine like family member 1)", "reagent": 2, "total luciferase, z-score": 0.153, "total luciferase, % of control": 84.9}
{"gene": "TAFA1 (TAFA chemokine like family member 1)", "reagent": 3, "total luciferase, z-score": 0.134, "total luciferase, % of control": 84.6}
{"gene": "DNAH8 (dynein axonemal heavy chain 8)", "reagent": 1, "total luciferase, z-score": 1.66, "total luciferase, % of control": 115}
{"gene": "DNAH8 (dynein axonemal heavy chain 8)", "reagent": 2, "total luciferase, z-score": 0.319, "total luciferase, % of control": 88.2}
{"gene": "DNAH8 (dynein axonemal heavy chain 8)", "reagent": 3, "total luciferase, z-score": 1.53, "total luciferase, % of control": 112}
{"gene": "ARNT2 (aryl hydrocarbon receptor nuclear translocator 2)", "reagent": 1, "total luciferase, z-score": 0.254, "total luciferase, % of control": 86.9}
{"gene": "ARNT2 (aryl hydrocarbon receptor nuclear translocator 2)", "reagent": 2, "total luciferase, z-score": 1.03, "total luciferase, % of control": 102}
{"gene": "ARNT2 (aryl hydrocarbon receptor nuclear translocator 2)", "reagent": 3, "total luciferase, z-score": 0.578, "total luciferase, % of control": 93.4}
{"gene": "PARD3 (par-3 family cell polarity regulator)", "reagent": 1, "total luciferase, z-score": -0.135, "total luciferase, % of control": 79.2}
{"gene": "PARD3 (par-3 family cell polarity regulator)", "reagent": 2, "total luciferase, z-score": -0.936, "total luciferase, % of control": 63.3}
{"gene": "PARD3 (par-3 family cell polarity regulator)", "reagent": 3, "total luciferase, z-score": -0.208, "total luciferase, % of control": 77.7}

Only “total luciferase, % of control”, for 3 of the entries above:
EVI2B (ecotropic viral integration site 2B) #3: 61.5
RAD51B (RAD51 paralog B) #1: 60.4
RAD51B (RAD51 paralog B) #2: 71.1
